Laboratory results: patent US20250051455A1
These are yes or no findings as the source states them, for the method shown. Some binding calls cover weakened binding; strength is not graded here.

Target: human HLA-G (form of the antigen not named) (human) (UniProt P17693)
Experiment: summary of antibody generation and screening from immunised rats; antigen form not named

binding: binds
B1: HLA-G-0031 (antibody, V domains shown)
VH: QVKLMQSGAALVKPGTSVKMSCNASGYTFTDYWVSWVKQSHGKRLEWVGEISPNSGASNFDENFKDKATLTVDKSTSTAYMELSRLTSEDSAIYYCTRSSHGSFRWFAYWGQGTLVTVSS
VL: AIVLNQSPSSIVASQGEKVTITCRASSSVSSNHLHWYQQKPGAFPKFVIYSTSQRASGIPSRFSGSGSGTSYSFTISRVEAEDVATYYCQQGSSNPYTFGAGTKLELK
